Reference: article PMC7935941
Results are given in words; binding and its absence hold for the method and conditions named. Binding calls can cover weak binding; strength is not graded here.

Molecular target: Protease1(N) (Bacillus amyloliquefaciens)
Assay: crystal structure; Protease1(N) at 12 mg/mL crystallised from 5 mM HEPES pH 7.0, 10 mM azide, 0.53 mM LFRAL pentapeptide; 17 °C; both purified

In the case of LFRAL [LFRAL pentapeptide], the binding is reported as “binds”.
